Experimental data: PubChem BioAssay AID1347421 (Sanford-Burnham Center for Chemical Genomics, 2020)
Over roughly 1,500 compounds, “activity” has its median near 2; the lowest 2% begin near -18. All entries are inconclusive by the source's own rule. Clear calls are listed elsewhere.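 Rule for the calls: active = inhibition of at least 40% at 10 µM; inconclusive = no clear call, values can overlap the other calls; inactive = the rest.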

Amino acid sequences for entries named in this document (tags omitted). A change or cut given only in a name is not applied to a line headed by its entry.
UniProt O00391: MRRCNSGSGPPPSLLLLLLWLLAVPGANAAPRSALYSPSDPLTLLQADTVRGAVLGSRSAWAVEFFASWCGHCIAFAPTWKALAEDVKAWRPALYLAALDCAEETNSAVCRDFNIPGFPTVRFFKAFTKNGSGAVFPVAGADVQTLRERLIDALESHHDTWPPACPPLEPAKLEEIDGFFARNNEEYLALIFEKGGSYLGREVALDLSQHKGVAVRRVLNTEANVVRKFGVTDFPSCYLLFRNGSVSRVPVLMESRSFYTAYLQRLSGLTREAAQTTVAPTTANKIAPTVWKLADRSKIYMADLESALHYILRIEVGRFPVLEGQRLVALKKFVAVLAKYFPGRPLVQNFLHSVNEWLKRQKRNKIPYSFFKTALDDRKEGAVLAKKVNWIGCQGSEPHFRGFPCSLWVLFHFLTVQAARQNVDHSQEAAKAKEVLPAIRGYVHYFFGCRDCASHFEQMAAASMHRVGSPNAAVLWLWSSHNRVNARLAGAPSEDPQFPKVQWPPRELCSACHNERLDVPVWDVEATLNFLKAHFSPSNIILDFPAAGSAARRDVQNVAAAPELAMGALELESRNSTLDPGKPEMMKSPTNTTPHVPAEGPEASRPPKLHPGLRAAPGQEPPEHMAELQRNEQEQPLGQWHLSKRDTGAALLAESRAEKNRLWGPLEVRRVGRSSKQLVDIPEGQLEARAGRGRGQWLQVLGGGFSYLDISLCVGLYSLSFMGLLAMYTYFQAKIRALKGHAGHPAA

target: Sulfhydryl oxidase 1 (Homo sapiens) (UniProt O00391); assay: QSOX1 enzyme inhibitors, confirmation, biochemical, ROS-Glo luminescence, single concentration (AID 1347421); details: recombinant hQSOX1, RNase A substrate, ROS-Glo H2O2 luminescence; at 10 µM;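 note: 0% = DMSO wells with enzyme and 100% = wells lacking QSOX1 enzyme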

SMILES	activity
CC(=O)Oc1ccc(-c2nc(-c3cccnc3)no2)cc1	inconclusive: 108%
